Measured values: patent US20250230193A1 (CHUGAI SEIYAKU KABUSHIKI KAISHA, priority 2022, published 2025)

Experiment: general procedure: Fmoc solid-phase peptide synthesis; 2-chlorotrityl chloride resin
Conditions: cyclisation step

In the case of “(1S,7S,11R,13S,19S,22S,26S,29S,35S,37Z,47E)-19-cyclopentyl-7-[2-[3,5-difluoro-4-(trifluoromethyl)phenyl]ethyl]-11-ethoxy-N-ethyl-N,3,18,21,25,31,34-heptamethyl-29-[(1S)-1-methylpropyl]-2,5,8,14,17,20,24,27,30,33,55-undecaoxo-spiro[3,6,9,15,18,21,25,28,31,34,41-undecazapentacyclo[24.15.11.2^43,46.1^35,41.0^9,13]pentapentaconta-37,43(54),44,46(53),47-pentaene-16,1′-cyclobutane]-22-carboxamide”, the cyclisation yield was 3.9%.

Same assay, conditions: whole synthesis

Compared with “(1S,7S,11R,13S,19S,22S,26S,29S,35S,37Z)-19-cyclopentyl-7-[2-[3-methoxy-4-(trifluoromethyl)phenyl]ethyl]-3,3′,3′,18,21,25,31,34-octamethyl-29-[(1S)-1-methylpropyl]-11-propoxy-22-(pyrrolidine-1-carbonyl)spiro[3,6,9,15,18,21,25,28,31,34,41-undecazapentacyclo[24.15.9.2^43,46.1^35,41.0^9,13]tripentaconta-37,43(52),44,46(51)-tetraene-16,1′-cyclobutane]-2,5,8,14,17,20,24,27,30,33,53-undecone”, “(1S,7S,11R,13S,19S,22S,26S,29S,35S,37Z)-19-cyclopentyl-11-ethoxy-7-[2-[3-methoxy-4-(trifluoromethyl)phenyl]ethyl]-3,3′,3′,18,21,25,31,34-octamethyl-29-[(1S)-1-methylpropyl]-22-(piperidine-1-carbonyl)spiro[3,6,9,15,18,21,25,28,31,34,41-undecazapentacyclo[24.15.10.2^43,46.1^35,41.0^9,13]tetrapentaconta-37,43(53),44,46(52)-tetraene-16,1′-cyclobutane]-2,5,8,14,17,20,24,27,30,33,54-undecone” is higher in isolated yield: 0.3% for the first, 9.3% for the second.

Compared with “(1S,7S,11R,13S,19S,22S,26S,29S,35S,37Z)-19-cyclopentyl-11-ethoxy-7-[2-[3-methoxy-4-(trifluoromethyl)phenyl]ethyl]-3,3′,3′,18,21,25,31,34-octamethyl-29-[(1S)-1-methylpropyl]-22-(pyrrolidine-1-carbonyl)spiro[3,6,9,15,18,21,25,28,31,34,41-undecazapentacyclo[24.15.11.2^43,46.1^35,41.0^9,13]pentapentaconta-37,43(54),44,46(53)-tetraene-16,1′-cyclobutane]-2,5,8,14,17,20,24,27,30,33,55-undecone”, “(1S,7S,11R,13S,19S,22S,26S,29S,35S,37Z,47E)-7-[2-[3,5-difluoro-4-(trifluoromethyl)phenyl]ethyl]-11-ethoxy-19-(1-ethylpropyl)-3,3′,3′,18,21,25,31,34-octamethyl-29-[(1S)-1-methylpropyl]-22-(pyrrolidine-1-carbonyl)spiro[3,6,9,15,18,21,25,28,31,34,41-undecazapentacyclo[24.15.10.2^43,46.1^35,41.0^9,13]tetrapentaconta-37,43(53),44,46(52),47-pentaene-16,1′-cyclobutane]-2,5,8,14,17,20,24,27,30,33,54-undecone” is higher in isolated yield: 15.4% for the first, 16.4% for the second.

Going from “(1S,7S,11R,13S,19S,22S,26S,29S,35S,37Z)-19-cyclopentyl-11-ethoxy-N-ethyl-7-[2-[3-methoxy-4-(trifluoromethyl)phenyl]ethyl]-N,3,3′,3′,18,21,25,31,34-nonamethyl-29-[(1S)-1-methylpropyl]-2,5,8,14,17,20,24,27,30,33,55-undecaoxo-spiro[3,6,9,15,18,21,25,28,31,34,41-undecazapentacyclo[24.15.11.2^43,46.1^35,41.0^9,13]pentapentaconta-37,43(54),44,46(53)-tetraene-16,1′-cyclobutane]-22-carboxamide” to “(1S,7S,11R,13S,19S,22S,26S,29S,35S,37Z)-19-cyclopentyl-11-ethoxy-7-[2-[3-methoxy-4-(trifluoromethyl)phenyl]ethyl]-3,18,21,25,31,34-hexamethyl-29-[(1S)-1-methylpropyl]-22-(piperidine-1-carbonyl)spiro[3,6,9,15,18,21,25,28,31,34,41-undecazapentacyclo[24.15.11.2^43,46.1^35,41.0^9,13]pentapentaconta-37,43(54),44,46(53)-tetraene-16,1′-cyclobutane]-2,5,8,14,17,20,24,27,30,33,55-undecone”, the isolated yield rises from 7.6% to 10.0%.

Going from “(1S,7S,11R,13S,19S,22S,26S,29S,35S,37Z,47E)-19-cyclopentyl-31-cyclopropyl-7-[2-[3,5-difluoro-4-(trifluoromethyl)phenyl]ethyl]-11-ethoxy-3,3′,3′,18,21,25,34-heptamethyl-29-[(1S)-1-methylpropyl]-22-(pyrrolidine-1-carbonyl)spiro[3,6,9,15,18,21,25,28,31,34,41-undecazapentacyclo[24.15.10.2^43,46.1^35,41.0^9,13]tetrapentaconta-37,43(53),44,46(52),47-pentaene-16,1′-cyclobutane]-2,5,8,14,17,20,24,27,30,33,54-undecone” to “(1S,7S,11R,13S,19S,22S,26S,29S,35S,37Z,47E)-19-cyclopentyl-11-ethoxy-N-ethyl-7-[2-[3-methoxy-4-(trifluoromethyl)phenyl]ethyl]-N,3,3′,3′,18,21,25,31,34-nonamethyl-29-[(1S)-1-methylpropyl]-2,5,8,14,17,20,24,27,30,33,55-undecaoxo-spiro[3,6,9,15,18,21,25,28,31,34,41-undecazapentacyclo[24.15.11.2^43,46.1^35,41.0^9,13]pentapentaconta-37,43(54),44,46(53),47-pentaene-16,1′-cyclobutane]-22-carboxamide”, the isolated yield falls from 23.8% to 4.3%.

First: (1S,7S,11R,13S,19S,22S,26S,29S,35S,37Z,47E)-7-[2-(3,4-dichlorophenyl)ethyl]-11-ethoxy-19-(1-ethylpropyl)-3,18,21,25,31,34-hexamethyl-29-[(1S)-1-methylpropyl]-22-(pyrrolidine-1-carbonyl)spiro[3,6,9,15,18,21,25,28,31,34,41-undecazapentacyclo[24.15.11.2^43,46.1^35,41.0^9,13]pentapentaconta-37,43(54),44,46(53),47-pentaene-16,1′-cyclobutane]-2,5,8,14,17,20,24,27,30,33,55-undecone
Second: (1S,7S,11R,13S,19S,22S,26S,29S,35S,37Z,47E)-19-cyclopentyl-7-[2-[3,5-difluoro-4-(trifluoromethyl)phenyl]ethyl]-11-ethoxy-3,3′,3′,18,21,25,31,34-octamethyl-29-[(1S)-1-methylpropyl]-22-(pyrrolidine-1-carbonyl)spiro[3,6,9,15,18,21,25,28,31,34,41-undecazapentacyclo[24.15.10.2^43,46.1^35,41.0^9,13]tetrapentaconta-37,43(53),44,46(52),47-pentaene-16,1′-cyclobutane]-2,5,8,14,17,20,24,27,30,33,54-undecone
The isolated yield of the first is higher: 27.7% for the first, 21.1% for the second.

First: (1S,7S,11R,13S,19S,22S,26S,29S,35S,37Z)-19-cyclopentyl-11-ethoxy-7-[2-[3-methoxy-4-(trifluoromethyl)phenyl]ethyl]-3,3′,3′,18,21,25,31,34-octamethyl-29-[(1S)-1-methylpropyl]-22-(piperidine-1-carbonyl)spiro[3,6,9,15,18,21,25,28,31,34,41-undecazapentacyclo[24.15.9.2^43,46.1^35,41.0^9,13]tripentaconta-37,43(52),44,46(51)-tetraene-16,1′-cyclobutane]-2,5,8,14,17,20,24,27,30,33,53-undecone
Second: (1S,7S,11R,13S,19S,22S,26S,29S,35S,37Z,47E)-19-cyclopentyl-7-[2-[3,5-difluoro-4-(trifluoromethyl)phenyl]ethyl]-11-ethoxy-N-ethyl-N,3,18,21,25,31,34-heptamethyl-29-[(1S)-1-methylpropyl]-2,5,8,14,17,20,24,27,30,33,55-undecaoxo-spiro[3,6,9,15,18,21,25,28,31,34,41-undecazapentacyclo[24.15.11.2^43,46.1^35,41.0^9,13]pentapentaconta-37,43(54),44,46(53),47-pentaene-16,1′-cyclobutane]-22-carboxamide
The isolated yield of the first is lower: 0.6% for the first, 3.9% for the second.

Going from “(1S,7S,11R,13S,19S,22S,26S,29S,35S,37Z)-19-cyclopentyl-11-ethoxy-7-[2-[3-methoxy-4-(trifluoromethyl)phenyl]ethyl]-3,3′,3′,18,21,25,31,34-octamethyl-29-[(1S)-1-methylpropyl]-22-(pyrrolidine-1-carbonyl)spiro[3,6,9,15,18,21,25,28,31,34,41-undecazapentacyclo[24.15.10.2^43,46.1^35,41.0^9,13]tetrapentaconta-37,43(53),44,46(52)-tetraene-16,1′-cyclobutane]-2,5,8,14,17,20,24,27,30,33,54-undecone” to “(1S,7S,11R,13S,19S,22S,26S,29S,35S,37Z,47E)-31-cyclopropyl-7-[2-[3,5-difluoro-4-(trifluoromethyl)phenyl]ethyl]-11-ethoxy-19-(1-ethylpropyl)-3,18,21,25,34-pentamethyl-29-[(1S)-1-methylpropyl]-22-(pyrrolidine-1-carbonyl)spiro[3,6,9,15,18,21,25,28,31,34,41-undecazapentacyclo[24.15.10.2^43,46.1^35,41.0^9,13]tetrapentaconta-37,43(53),44,46(52),47-pentaene-16,1′-cyclobutane]-2,5,8,14,17,20,24,27,30,33,54-undecone”, the isolated yield rises from 9.8% to 31.2%.
